According to the supplement of paper PMC6078165:
The reference is the same well before dosing, and untreated signal decays as well.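 Fibroblast labels denote human fibroblasts, mainly primary ones from uterus (C12385, HUF), lung (H6013), bone (Hs27A), adrenal (HADF) and skin (WS1), plus mammary HMF and breast cancer-associated Hs343T. Cancer cells are basal-like or mesenchymal-like triple-negative breast cancer lines. A hit is a response shift exceeding 3x replicate standard deviation. The tissue of the other fibroblasts is not given here.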

System: MDAMB231
Test: relative JC-1 red fluorescence (viability) vs pre-drug, coculture with fibroblast (fraction); higher = more viable cancer cells
Protocol: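 JC-1 labelled TNBC cells cocultured 1:1 (1,500 cells each) with CellTrace Violet stained primary or stromal fibroblasts in 384-well plates in FluoroBrite medium, treated with one of 42 anticancer drugs at 0.1, 1, 10 or 100 uM. JC-1 red fluorescence (mitochondrial integrity in cancer cells only) was read by plate reader every 8 h for 72 h. Values are normalised to each well's pre-drug value. The stock of one drug was tenfold lower, so its dose labels may be too high.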

O=C(O)CCCc1ccc(N(CCCl)CCCl)cc1 [Chlorambucil]
relative JC-1 red fluorescence
Settings	8 h	16 h	24 h	32 h	40 h	48 h	56 h	64 h	72 h
0.1 µM, coculture fibroblast: C12385	0.788	0.716	0.829	0.695	0.659	0.662	0.642	0.68	0.681
0.1 µM, coculture fibroblast: H6013	0.862	0.8345	0.8113	0.79205	0.758	0.7584	0.74	0.7238	0.6829
0.1 µM, coculture fibroblast: H6019	0.7798	0.7046	0.776	0.6901	0.6634	0.6637	0.6335	0.6379	0.6073
0.1 µM, coculture fibroblast: H6076	0.836	0.784	0.773	0.776	0.774	0.773	0.796	0.801	0.686
0.1 µM, coculture fibroblast: H6231	0.837	0.752	0.704	0.67	0.63	0.606	0.566	0.557	0.538
0.1 µM, coculture fibroblast: HADF	0.853	0.826	0.782	0.758	0.72	0.693	0.669	0.659	0.615
0.1 µM, coculture fibroblast: HCFa	0.8654	0.8104	0.7831	0.7513	0.707	0.6745	0.6479	0.6214	0.5814
0.1 µM, coculture fibroblast: HCPF	0.844	0.756	0.691	0.667	0.612	0.568	0.536	0.511	0.495
0.1 µM, coculture fibroblast: HHSteC	0.8896	0.8546	0.8079	0.7643	0.7322	0.7151	0.6708	0.6549	0.624
0.1 µM, coculture fibroblast: HMF	0.8339	0.775	0.733	0.708	0.678	0.656	0.637	0.633	0.629
0.1 µM, coculture fibroblast: HPFa	0.91	0.883	0.848	0.807	0.788	0.753	0.706	0.671	0.616
0.1 µM, coculture fibroblast: HUF	0.791	0.686	0.7116	0.586	0.53	0.521	0.482	0.496	0.483
0.1 µM, coculture fibroblast: Hs5	0.8159	0.775	0.744	0.711	0.68	0.634	0.614	0.594	0.573
0.1 µM, coculture fibroblast: Hs27A	0.8616	0.82611	0.792	0.776	0.7353	0.709	0.689	0.672	0.621
0.1 µM, coculture fibroblast: Hs343T	0.895	0.781	0.711	0.655	0.599	0.547	0.496	0.471	0.443
0.1 µM, coculture fibroblast: WS1	0.7792	0.7322	0.72	0.634	0.593	0.591	0.551	0.554	0.532
1 µM, coculture fibroblast: C12385	0.758	0.7315	0.6141	0.6059	0.539	0.4976	0.446	0.434	0.415
1 µM, coculture fibroblast: H6013	0.899	0.862	0.793	0.757	0.709	0.6802	0.66	0.6351	0.603
1 µM, coculture fibroblast: H6019	0.747	0.675	0.601	0.573	0.511	0.48	0.425	0.398	0.347
1 µM, coculture fibroblast: H6076	0.943	0.873	0.807	0.781	0.726	0.679	0.637	0.622	0.607
1 µM, coculture fibroblast: H6231	0.898	0.803	0.734	0.7	0.654	0.618	0.593	0.5751	0.556
1 µM, coculture fibroblast: HADF	0.888	0.84	0.779	0.769	0.72361	0.66682	0.6495	0.626	0.579
1 µM, coculture fibroblast: HCFa	0.8858	0.8138	0.75345	0.712	0.661	0.6045	0.578	0.54	0.494
1 µM, coculture fibroblast: HCPF	0.88	0.768	0.688	0.661	0.592	0.551	0.513	0.482	0.457
1 µM, coculture fibroblast: HHSteC	0.898	0.826	0.778	0.729	0.677	0.641	0.593	0.575	0.531
1 µM, coculture fibroblast: HMF	0.8966	0.788	0.699	0.652	0.59	0.543	0.489	0.464	0.438
1 µM, coculture fibroblast: HPFa	0.953	0.9187	0.854	0.796	0.762	0.71	0.643	0.608	0.55
1 µM, coculture fibroblast: HUF	0.845	0.773	0.718	0.618	0.596	0.58	0.505	0.478	0.445
1 µM, coculture fibroblast: Hs5	0.893	0.811	0.7338	0.68658	0.629	0.577	0.531	0.505	0.466
1 µM, coculture fibroblast: Hs27A	0.88	0.83	0.8126	0.796	0.765	0.708	0.73	0.716	0.6818
1 µM, coculture fibroblast: Hs343T	0.916	0.842	0.784	0.754	0.711	0.669	0.61	0.581	0.544
1 µM, coculture fibroblast: WS1	0.7562	0.691	0.597	0.556	0.503	0.468	0.416	0.398	0.366
